Measured values: article PMC3646813
No constants are given. Whether binding was seen depends on the method and setting. Some binding calls cover weakened binding; strength is not graded here.

The chains behind the UniProt entries cited, without tags or fusion partners. Where a name states a change or a piece, a line headed by the entry shows the natural chain unless it says otherwise.
UniProt P18708: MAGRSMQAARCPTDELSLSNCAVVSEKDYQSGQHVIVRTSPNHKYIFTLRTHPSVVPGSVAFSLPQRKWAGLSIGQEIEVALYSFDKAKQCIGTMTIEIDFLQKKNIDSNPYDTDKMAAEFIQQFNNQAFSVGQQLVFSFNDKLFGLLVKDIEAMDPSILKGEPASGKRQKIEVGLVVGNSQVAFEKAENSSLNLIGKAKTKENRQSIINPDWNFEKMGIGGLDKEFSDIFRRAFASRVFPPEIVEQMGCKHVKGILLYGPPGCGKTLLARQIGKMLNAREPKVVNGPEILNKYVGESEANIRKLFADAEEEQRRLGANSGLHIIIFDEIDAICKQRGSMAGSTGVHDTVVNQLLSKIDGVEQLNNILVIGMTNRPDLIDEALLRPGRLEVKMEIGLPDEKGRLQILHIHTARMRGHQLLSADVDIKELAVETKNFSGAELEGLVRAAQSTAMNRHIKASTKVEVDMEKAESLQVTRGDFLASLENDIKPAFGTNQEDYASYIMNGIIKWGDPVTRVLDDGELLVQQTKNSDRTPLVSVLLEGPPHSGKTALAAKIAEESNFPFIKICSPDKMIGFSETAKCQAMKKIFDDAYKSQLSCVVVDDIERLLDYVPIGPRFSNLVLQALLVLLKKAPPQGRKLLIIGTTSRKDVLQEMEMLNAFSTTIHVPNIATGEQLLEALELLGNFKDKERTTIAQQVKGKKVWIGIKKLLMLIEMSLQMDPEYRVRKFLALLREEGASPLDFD

Key:
Assay in all cases: SEC; Superose-6 column, buffer containing ADP-AlFx; oligomeric state of purified NSF; both purified
[1] = biological target: NSF I208A (UniProt P18708)
[2] = biological target: NSF K217A (UniProt P18708)
[3] = biological target: NSF N210A (UniProt P18708)
[4] = biological target: NSF I220A (UniProt P18708)
[5] = biological target: NSF G221AG222A (UniProt P18708)
[6] = biological target: NSF G221PG222P (UniProt P18708)
[7] = biological target: NSF E203A (UniProt P18708)
[8] = biological target: NSF N214A (UniProt P18708)
[9] = biological target: NSF M218A (UniProt P18708)
[10] = biological target: NSF N204A (UniProt P18708)
[11] = biological target: NSF W213A (UniProt P18708)
[12] = biological target: NSF E216A (UniProt P18708)
[13] = biological target: NSF P211A (UniProt P18708)
[14] = biological target: NSF Q206A (UniProt P18708)
[15] = biological target: NSF S207A (UniProt P18708)
[16] = biological target: NSF F215A (UniProt P18708)
[17] = biological target: NSF D212A (UniProt P18708)
[18] = biological target: NSF I209A (UniProt P18708)
[19] = biological target: NSF G219A (UniProt P18708)

NSF I208A (from UniProt P18708 1-744) (enzyme)
binding [1]: binds

NSF K217A (from UniProt P18708 1-744) (enzyme)
binding [2]: binds

NSF N210A (from UniProt P18708 1-744) (enzyme)
binding [3]: binds

NSF I220A (from UniProt P18708 1-744) (enzyme)
binding [4]: binds

NSF G221AG222A (from UniProt P18708 1-744) (enzyme)
binding [5]: binds

NSF G221PG222P (from UniProt P18708 1-744) (enzyme)
binding [6]: binds

NSF E203A (from UniProt P18708 1-744) (enzyme)
binding [7]: binds

NSF N214A (from UniProt P18708 1-744) (enzyme)
binding [8]: binds

NSF M218A (from UniProt P18708 1-744) (enzyme)
binding [9]: binds

NSF N204A (from UniProt P18708 1-744) (enzyme)
binding [10]: binds

NSF W213A (from UniProt P18708 1-744) (enzyme)
binding [11]: binds

NSF E216A (from UniProt P18708 1-744) (enzyme)
binding [12]: binds

NSF P211A (from UniProt P18708 1-744) (enzyme)
binding [13]: binds

NSF Q206A (from UniProt P18708 1-744) (enzyme)
binding [14]: binds

NSF S207A (from UniProt P18708 1-744) (enzyme)
binding [15]: binds

NSF F215A (from UniProt P18708 1-744) (enzyme)
binding [16]: binds

NSF D212A (from UniProt P18708 1-744) (enzyme)
binding [17]: binds

NSF I209A (from UniProt P18708 1-744) (enzyme)
binding [18]: binds

NSF G219A (from UniProt P18708 1-744) (enzyme)
binding [19]: binds
